Laboratory results taken from PMC3024409.
No constants are given. Whether binding was seen depends on the method and setting. Where a sequence is shown, tags or fusion partners need not be part of it.

Key:
[1] = biological target: (MBP-)Rps0 (S. cerevisiae), P32905; test: condition: 5 µM untagged protein, 3 µM MBP-tagged protein; pull-down; 3 µM MBP-tagged bait and 5 µM untagged prey in 50 mM HEPES pH 7.5, 150 mM KCl; 10 min at room temperature, 1 h at 4°C with amylose resin; washed, eluted with 20 mM maltose; SDS-PAGE, Coomassie; both purified; settings: remark: other sources report otherwise
[2] = biological target: (MBP-)Rps29 (S. cerevisiae); test: as above

Binder	binding [1]	binding [2]
Tsr1 (untagged), Q07381 1-788 (protein) MAGHSHRSSLKNGHKSYKSKHASKGALKRLYKGKVEKEPVGTGKPDKQVSKLQRKNKAKQLRAQRILDSIENRKLFEGKNGAAKIITIVPLVNDLDPLDILYKLLKCADDEGIMVQEVDSKRIFNVHIKKFKSNLKIIIPDMTNFLNILDCAKVADFVVFGLSGVQEVDEEFGEQIIRALELQGIASYIGVISNLSAVHEKEKFQLDVKQSLESYFKHFFPSEERVYNLEKNSDALNVLRTLCQRLPRSINWRDNRGYVVADFVDFVETSPDSGDLVIEGTVRGIGFNANRLVHIPDFGDFQLNKIEKISESSQKRKIIKEKATDSLSLELDLQTVFESNMNRDTLDEYAPEGTEDWSDYDEDFEYDGLTTARYDDHGFLPGREQTSKKAAVPKGTSDYQAKWYLDDVIDANEEEEAEQTNGKDETMMEIDDEMMVEQDNEEVAGDEEYDIEDNEGFEELSPEEEERQLREFRDMEKEDREFPDEIELEPSESAIERLKRYRGLKNLYNCDWQVDEKDPSSPAEWKRLLRIGNYKNTKNRIIKETKNEAQAIAGDRIRMFIRFPKFLLEKIQDPKQLLFAVYGLLLHEHKNAVVNFSLQRWEQYDKPVPSQEPIVVQYGVRRYTIQPLFSQGSNSPNNVHKYERFLHPDTVSVATCIAPVDFTQSPAIFFKPSPTDAKNIELIGHGTFLNADHSRILAKRAILTGHPFRFHKTVVTVRYMFFRPEDVEWFKSIPLFTKSGRSGFIKESLGTHGYFKATFDGKLSAQDVVAMSLYKRMWPMPSLPWNGM	no binding	
Tsr1 (untagged) (protein, UniProt Q07381 1-788) MAGHSHRSSLKNGHKSYKSKHASKGALKRLYKGKVEKEPVGTGKPDKQVSKLQRKNKAKQLRAQRILDSIENRKLFEGKNGAAKIITIVPLVNDLDPLDILYKLLKCADDEGIMVQEVDSKRIFNVHIKKFKSNLKIIIPDMTNFLNILDCAKVADFVVFGLSGVQEVDEEFGEQIIRALELQGIASYIGVISNLSAVHEKEKFQLDVKQSLESYFKHFFPSEERVYNLEKNSDALNVLRTLCQRLPRSINWRDNRGYVVADFVDFVETSPDSGDLVIEGTVRGIGFNANRLVHIPDFGDFQLNKIEKISESSQKRKIIKEKATDSLSLELDLQTVFESNMNRDTLDEYAPEGTEDWSDYDEDFEYDGLTTARYDDHGFLPGREQTSKKAAVPKGTSDYQAKWYLDDVIDANEEEEAEQTNGKDETMMEIDDEMMVEQDNEEVAGDEEYDIEDNEGFEELSPEEEERQLREFRDMEKEDREFPDEIELEPSESAIERLKRYRGLKNLYNCDWQVDEKDPSSPAEWKRLLRIGNYKNTKNRIIKETKNEAQAIAGDRIRMFIRFPKFLLEKIQDPKQLLFAVYGLLLHEHKNAVVNFSLQRWEQYDKPVPSQEPIVVQYGVRRYTIQPLFSQGSNSPNNVHKYERFLHPDTVSVATCIAPVDFTQSPAIFFKPSPTDAKNIELIGHGTFLNADHSRILAKRAILTGHPFRFHKTVVTVRYMFFRPEDVEWFKSIPLFTKSGRSGFIKESLGTHGYFKATFDGKLSAQDVVAMSLYKRMWPMPSLPWNGM		no binding
